Experimental data: PubChem BioAssay AID1347423 (Functional Genomics Laboratory (NCATS/FGL), 2020)
Among all 52,000 sequences or so, about 210 (0.4%) were called active.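 Rule for the calls: active = gene whose silencing raises cell survival under the drug, median off-target-corrected z-score across its silencing RNAs 2 or more; inactive = the rest.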 The list shows a part of the results.

Assay: Resistance to Poly (ADP-Ribose) Polymerase inhibitor: Gene Identification via Genome-wide siRNA Screen
Conditions: mouse BRCA2 R2336H ES cells, olaparib, CellTiter-Glo viability; hits give high values
Procedure, shortened: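 Genome-wide siRNA screen (3 siRNAs/gene, 20 nM) in mouse ES cells carrying hypomorphic BRCA2 R2336H; olaparib 500 nM added 48 h post-transfection, CellTiter-Glo viability 72 h later. Normalized to plate-median negative control; MAD z-scores, gene median, seed-adjusted.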

Sequence	z-score
GGAAGUUGUAUAAGCCAGGTT against 9330151E16Rik	inactive: -0.695
GGAAUUCAGCGAAGAGAAUTT against Rgs10	inactive: -1.18
GGGUAUAUUUUUGAUACCUTT against Ncor2	inactive: 0.155
GGCACCUAGAAUGAGAUGCTT against Nhlh2	inactive: 0.533
GGUUCAAGAAAAAACCCAATT against Ezh1	inactive: 0.411
GGAUUUGACUGAGAAAGACTT against LOC545925	inactive: -0.638
CCAAAACAAUACUCACCACTT against Mfap4	inactive: 0.163
GGUGGAUGCAAUUCUCUGUTT against Qdpr	inactive: 0.539
GGUCCUAAUGCACUUUUUATT against 1700093K21Rik	inactive: 0.736
GCCUGACAUUGGGACAAAGTT against Trim34	inactive: -0.667
GGAUUGCCAUCUGUGGUGCTT against Ltb4dh	inactive: 0.0916
CCCGCACAUGAAAUCCGCUTT against 3110032G18Rik	inactive: -0.425
GCAUUAUACCUGUCAAGUUTT against Klk1	inactive: -1.34
GGUUCUAGCAAACGGAGAATT against Phf12	inactive: -1.12
GGUUCUAUCUGAUAGGCGATT against Gdf9	inactive: -0.697
GCGGCUUUGGAAUGACUCUTT against Samd8	inactive: 1.28
GGUCCAGCUGUUCAUGACUTT against Kcnn4	inactive: -0.583
GCUACAAACAAAAGUGGCCTT against 2810453L12Rik	inactive: 0.097
GGGAACCGUUCUUUACUUATT against D430018P08	inactive: 0.64
GGAUCAUCAAGGACUUCAUTT against Ppil1	inactive: -1.39
GGUCAACUUUCUACAAAAGTT against 1700001M19Rik	inactive: 0.662
GGGACAUCUUCUCCAAUGATT against Slc24a3	inactive: -1.66
GGAACCUACUGCUACAUCATT against Sftpc	inactive: 3.16
GCAGGUGAAAAGCAAUCCUTT against Mpn	inactive: -0.145
GGAUAGGAUUCGAUGUCGUTT against 2310079N02Rik	inactive: 0.36
GGACGGCUCUAAAGAUGAGTT against Spin	inactive: -0.551

Quoted from the results shown (two entries):
Sequence	z-score
GGUUCUAUCUGAUAGGCGATT against Gdf9	inactive: -0.697
GCGGCUUUGGAAUGACUCUTT against Samd8	inactive: 1.28

Next results:

Sequence	z-score
GGACAUGAGGACUGUAUCATT against Clec4g	inactive: 1.46
GGAAUUUGCCUAUAUGAAGTT against Riok2	inactive: 0.433
GGUUGUUCGAGGAAUAUCCTT against Cmya3	inactive: 0.377
CGUUCAGUGUCUGCAGGUUTT against Mrps12	inactive: -2.86
GGGUAUGAUGUGAUUGCUCTT against Eif4a2	inactive: -0.664
GCCACUUACUUUUCUGAAATT against Commd7	inactive: -0.435
CCACAGUGAAUCGAGCUUATT against Olfr685	inactive: -0.614
CCAGAUAUGAUGGUGCAAGTT against Sfrp4	inactive: 2.26
GGACAGCAUUCUGAGCAGUTT against Cx3cr1	inactive: -0.156
GGUUCAUGGAGAAGAAUCUTT against D1Ertd161e	inactive: 0.156
GGACCACGCAAAAGAAUAUTT against Mtss1	inactive: -1.51
GGACUGCUAUGGGUCUUCATT against Clk3	inactive: -1.64
GCCCAACAACGCAGAAUUUTT against Cyp4v3	inactive: 2
GCUGAACCAAACCCAAAUGTT against Snph	inactive: -1.59
CGGGACCUAUGUGAUCAUGTT against Casp1	inactive: -0.201
GGAGCUCAUCUUCACAGGCTT against D4Ertd765e	inactive: -0.574
GCGGCUUUGGCAAUUCUCUTT against Olfr1361	inactive: -1.31
GGCUACACAAGAAGAUUCUTT against Stk22s1	inactive: 1.41
GCAUUUCACUUUGAGAAAUTT against Ahrr	inactive: -0.531
CCUCAAAACAGUGUGGACATT against 9630041A04Rik	inactive: -1.51
GGUCUCAGGCUCAACUCAATT against LOC619945	inactive: 0.684
GCGAUUUGUCUAGUCCAAATT against Zfp622	inactive: -0.365
CGUACAUGCUCCUUCUAUCTT against 2900005J15Rik	inactive: 0.537
GGUUGACAUGGUUCAGUCATT against Tcf23	inactive: -0.516
GGACAUCGUGCUCUAUCUCTT against Nrarp	inactive: 0.496
GCAUACGAGGAAACUACAUTT against Chm	inactive: -0.972

Rewritten as labelled records: entries from further up
GCAUUUCACUUUGAGAAAUTT against Ahrr
  z-score: inactive: -0.531
CCUCAAAACAGUGUGGACATT against 9630041A04Rik
  z-score: inactive: -1.51
GGUCUCAGGCUCAACUCAATT against LOC619945
  z-score: inactive: 0.684
GCGAUUUGUCUAGUCCAAATT against Zfp622
  z-score: inactive: -0.365

Further results follow:

Sequence	z-score
GGAUUUUGAAGACAUCUGUTT against D2Ertd435e	inactive: 0.651
GGACAGUUUAAGGACAACATT against Mopt	inactive: 1.2
GGAUCCUGGUCCAAACUUUTT against 0610007C21Rik	inactive: 2.42
GGGUUCAUUCUUAUGUAUGTT against 2600010E01Rik	inactive: 0.967
GGUUGAUGAGUUUAGGUUUTT against Cpsf2	inactive: 0.588
GGACUGCACUGUCAUGGUATT against Coro1b	inactive: 0.641
GGCUGGAAAAUCAAUUCUUTT against Siat8d	inactive: -1.1
CCACCUCUCAAAUAAAACATT against Cyp2a5	inactive: -0.299
GCAAAAGCUAAUAAACUUGTT against Acox2	inactive: 0.354
GCGGCAUACUCCAACUUCUTT against 2810024B22Rik	inactive: 1
GGAAUGGACCGGGUUCAUCTT against Fcmd	inactive: 0.578
GCAGGGAAUAGCAAACUUATT against Nfil3	inactive: -0.0131
GCGGGAACUUAAAGUUUACTT against Yars	inactive: 1.87
CCACUGAUUGUUGACUGCUTT against Trip6	inactive: -1.07
GGAGCGUGACUUUGUAUAATT against Ly6g6e	inactive: -1.25
CCCACAUCUUAACUUGUUGTT against Rab5c	inactive: 0.385
CGUCCAACCACAGAUCUACTT against 4921536K21Rik	inactive: -2.44
GGUCAAUUCCAUGAUUACGTT against Pgm3	inactive: 0.801
GGUUGACAACCACCUUUUUTT against Pip5k2a	inactive: -0.105
GCGGAAGUAAGCUUGGAUGTT against BC023835	inactive: -1.54
GGGAAUCAUUAAAUAGGAUTT against 4933432P15Rik	inactive: -0.0673
GGAGUUAUUCUAGGAAUAUTT against BC014805	inactive: 0.624
GGAAGUCUUCCAUGAUAUUTT against 4933400A11Rik	inactive: -1.5
GCAGGGUUUCAAAGAUAACTT against Npepl1	inactive: 0.0866
GGAAAACAAAUUCAAGUGCTT against Tex9	inactive: 0.00647
AUGCAGUCAGAGACAGACCTT against MGC118210	inactive: 0.968

Sequence	z-score
GCCCGUCACAAUCAUUACCTT against Zfp523	inactive: -1.12
CGAAUUGAAUUCUACGAACTT against Pmm2	inactive: -0.109
CGCCAAUUCAUCGUUGACUTT against Ccl3	inactive: 2.11
CGUAAAUGGCGAUUGAUCUTT against 2810465F10Rik	inactive: -0.8
CCAUCCUCAACAAGAUCGATT against Rab4b	inactive: 1.07
GGACCAGUGUCUUUUCAGATT against Hmmr	inactive: 1.02
AGUCACAGUAAUCUCCUACTT against LOC435366	inactive: 0.0969
CCGUGUCAUUUGGAGAGCUTT against 2310003L22Rik	inactive: 1.8
GGUUGAUUUGUAGGGAGAGTT against Olfr1110	inactive: -0.429
GGAUCAGAUGAUAAACCAUTT against 4833441J24Rik	inactive: -1.54
GCACUACUGAUGGGUUUCUTT against Nme2	inactive: -1.88
GCCCUGCUAGACAUUCUCUTT against Arrdc1	inactive: 0.0233
CCAAUCAGCAACUUCUUAUTT against Fbxl21	inactive: -0.295
AUGGUGCUGUUUUAUUUGUTT against Olfr671	inactive: -0.904
GGCAGUGCUGGCAACAAAUTT against Hsd3b5	inactive: 0.712
GGCACCGAGAUUGUCAUUCTT against Olfr1246	inactive: 0.346
GGAGCUGAAAAAACUGAAGTT against 9130017A15Rik	inactive: -2.5
GAAGUUCAAUGGAGAAGACTT against Arl2	inactive: -1.07
CCAUACACAUGUAAUUCUCTT against Wig1	inactive: 0.586
CCACAGUCUAUUCAAACUUTT against B130055D15Rik	inactive: -0.946
GGAUAACCUUAACUUCUGATT against 2810449C13Rik	inactive: 2.16
GGUGACUGGUUUGUUGCUUTT against 5730458D16Rik	inactive: 0.0248
GGAAAAGUGAUAGUGGCUCTT against Ccnl2	inactive: -0.21
GGGUCUGGAGAAUCUUCAGTT against Tgfb1i1	inactive: -0.83
GGUUUAAAUGCAGUUCACATT against Arl9	inactive: -0.447
GGAGGAGUUCAUUGAGGCATT against Elf5	inactive: 0.521
